Consider 28 targets from the supplement of paper PMC10849652.

The chains behind the UniProt entries cited, without tags or fusion partners. Where a name states a change or a piece, a line headed by the entry shows the natural chain unless it says otherwise.
UniProt Q9NTN9: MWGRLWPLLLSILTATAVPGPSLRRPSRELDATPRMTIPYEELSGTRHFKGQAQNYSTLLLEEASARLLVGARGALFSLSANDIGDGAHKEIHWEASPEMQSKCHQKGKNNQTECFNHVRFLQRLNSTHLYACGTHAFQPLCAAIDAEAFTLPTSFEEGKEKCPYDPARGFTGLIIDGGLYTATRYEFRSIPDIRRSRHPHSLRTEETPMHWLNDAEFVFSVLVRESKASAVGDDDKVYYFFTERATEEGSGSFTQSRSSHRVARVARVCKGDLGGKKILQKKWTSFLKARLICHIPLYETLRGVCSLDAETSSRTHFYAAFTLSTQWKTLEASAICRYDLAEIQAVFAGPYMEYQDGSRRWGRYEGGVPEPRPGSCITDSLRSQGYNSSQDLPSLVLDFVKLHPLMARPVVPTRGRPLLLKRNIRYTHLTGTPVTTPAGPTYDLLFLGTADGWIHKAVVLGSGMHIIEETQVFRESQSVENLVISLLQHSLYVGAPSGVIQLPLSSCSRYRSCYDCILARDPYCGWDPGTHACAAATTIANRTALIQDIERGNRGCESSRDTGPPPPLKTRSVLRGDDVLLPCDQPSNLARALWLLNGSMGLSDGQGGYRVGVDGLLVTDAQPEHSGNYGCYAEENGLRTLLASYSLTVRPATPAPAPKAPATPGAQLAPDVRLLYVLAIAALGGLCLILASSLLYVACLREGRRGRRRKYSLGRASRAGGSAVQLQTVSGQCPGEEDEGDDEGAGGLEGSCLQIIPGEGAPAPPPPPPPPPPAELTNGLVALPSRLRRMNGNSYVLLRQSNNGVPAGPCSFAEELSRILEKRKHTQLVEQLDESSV
UniProt Q99442: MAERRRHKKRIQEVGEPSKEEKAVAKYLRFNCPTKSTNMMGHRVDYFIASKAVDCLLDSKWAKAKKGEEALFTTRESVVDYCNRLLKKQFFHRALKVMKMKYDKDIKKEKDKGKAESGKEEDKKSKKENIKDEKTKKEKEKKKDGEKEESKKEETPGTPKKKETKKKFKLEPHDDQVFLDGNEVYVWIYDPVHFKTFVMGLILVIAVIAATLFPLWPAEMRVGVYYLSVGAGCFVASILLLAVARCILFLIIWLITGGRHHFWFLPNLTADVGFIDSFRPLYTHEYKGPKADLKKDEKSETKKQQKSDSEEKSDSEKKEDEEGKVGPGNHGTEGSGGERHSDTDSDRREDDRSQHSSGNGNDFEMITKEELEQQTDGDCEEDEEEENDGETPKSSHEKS
UniProt O75446: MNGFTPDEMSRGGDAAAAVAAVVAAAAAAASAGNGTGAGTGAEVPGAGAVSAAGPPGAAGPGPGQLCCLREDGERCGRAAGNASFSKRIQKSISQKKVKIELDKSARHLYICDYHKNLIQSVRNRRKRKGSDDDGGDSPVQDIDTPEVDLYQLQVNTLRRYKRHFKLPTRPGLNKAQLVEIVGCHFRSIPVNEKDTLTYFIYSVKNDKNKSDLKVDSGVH
UniProt Q96HI0: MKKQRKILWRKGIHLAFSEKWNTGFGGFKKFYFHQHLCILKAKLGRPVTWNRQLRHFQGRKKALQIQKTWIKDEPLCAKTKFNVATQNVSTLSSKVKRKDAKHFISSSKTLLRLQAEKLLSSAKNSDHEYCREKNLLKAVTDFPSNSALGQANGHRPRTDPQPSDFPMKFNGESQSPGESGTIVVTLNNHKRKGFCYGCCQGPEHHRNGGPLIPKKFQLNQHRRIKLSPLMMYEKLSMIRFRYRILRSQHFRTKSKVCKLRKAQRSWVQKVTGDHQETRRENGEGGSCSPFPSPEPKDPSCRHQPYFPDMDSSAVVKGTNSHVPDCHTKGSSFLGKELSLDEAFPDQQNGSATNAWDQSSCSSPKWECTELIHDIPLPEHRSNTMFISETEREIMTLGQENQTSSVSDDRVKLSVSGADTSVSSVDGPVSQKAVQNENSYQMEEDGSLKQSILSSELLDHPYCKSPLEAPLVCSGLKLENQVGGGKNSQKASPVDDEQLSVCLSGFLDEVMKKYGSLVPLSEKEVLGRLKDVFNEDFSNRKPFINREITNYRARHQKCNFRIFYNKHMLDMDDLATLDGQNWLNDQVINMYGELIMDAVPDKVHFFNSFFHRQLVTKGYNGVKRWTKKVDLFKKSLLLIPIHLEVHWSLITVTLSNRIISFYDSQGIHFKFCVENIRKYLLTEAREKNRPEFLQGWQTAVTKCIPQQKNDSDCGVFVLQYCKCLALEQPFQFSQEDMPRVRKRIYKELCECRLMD
UniProt Q9BY50: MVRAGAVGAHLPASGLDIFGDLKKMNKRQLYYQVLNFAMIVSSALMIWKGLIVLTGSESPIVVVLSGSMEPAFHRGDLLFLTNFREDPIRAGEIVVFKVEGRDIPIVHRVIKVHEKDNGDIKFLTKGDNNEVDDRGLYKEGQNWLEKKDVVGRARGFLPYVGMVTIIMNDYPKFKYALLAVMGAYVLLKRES
UniProt Q8IZE3: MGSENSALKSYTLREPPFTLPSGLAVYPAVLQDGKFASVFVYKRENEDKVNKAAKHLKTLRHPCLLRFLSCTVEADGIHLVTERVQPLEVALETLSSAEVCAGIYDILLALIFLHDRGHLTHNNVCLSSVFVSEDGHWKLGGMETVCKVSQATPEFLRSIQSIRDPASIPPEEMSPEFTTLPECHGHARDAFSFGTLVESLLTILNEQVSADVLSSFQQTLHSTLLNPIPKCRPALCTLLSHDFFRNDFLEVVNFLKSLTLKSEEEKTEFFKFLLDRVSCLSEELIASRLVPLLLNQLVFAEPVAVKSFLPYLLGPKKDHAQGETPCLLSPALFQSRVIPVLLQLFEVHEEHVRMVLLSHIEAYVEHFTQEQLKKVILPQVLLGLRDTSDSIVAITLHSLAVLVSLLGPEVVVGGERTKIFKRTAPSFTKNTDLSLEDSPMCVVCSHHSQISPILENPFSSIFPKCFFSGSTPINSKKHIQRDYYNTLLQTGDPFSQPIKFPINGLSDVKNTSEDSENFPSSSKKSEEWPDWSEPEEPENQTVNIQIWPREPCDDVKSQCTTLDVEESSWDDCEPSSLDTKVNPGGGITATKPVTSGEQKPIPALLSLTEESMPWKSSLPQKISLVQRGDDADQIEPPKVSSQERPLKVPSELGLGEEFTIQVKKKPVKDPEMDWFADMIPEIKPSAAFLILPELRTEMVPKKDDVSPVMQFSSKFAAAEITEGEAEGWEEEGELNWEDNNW
UniProt Q9UQR0: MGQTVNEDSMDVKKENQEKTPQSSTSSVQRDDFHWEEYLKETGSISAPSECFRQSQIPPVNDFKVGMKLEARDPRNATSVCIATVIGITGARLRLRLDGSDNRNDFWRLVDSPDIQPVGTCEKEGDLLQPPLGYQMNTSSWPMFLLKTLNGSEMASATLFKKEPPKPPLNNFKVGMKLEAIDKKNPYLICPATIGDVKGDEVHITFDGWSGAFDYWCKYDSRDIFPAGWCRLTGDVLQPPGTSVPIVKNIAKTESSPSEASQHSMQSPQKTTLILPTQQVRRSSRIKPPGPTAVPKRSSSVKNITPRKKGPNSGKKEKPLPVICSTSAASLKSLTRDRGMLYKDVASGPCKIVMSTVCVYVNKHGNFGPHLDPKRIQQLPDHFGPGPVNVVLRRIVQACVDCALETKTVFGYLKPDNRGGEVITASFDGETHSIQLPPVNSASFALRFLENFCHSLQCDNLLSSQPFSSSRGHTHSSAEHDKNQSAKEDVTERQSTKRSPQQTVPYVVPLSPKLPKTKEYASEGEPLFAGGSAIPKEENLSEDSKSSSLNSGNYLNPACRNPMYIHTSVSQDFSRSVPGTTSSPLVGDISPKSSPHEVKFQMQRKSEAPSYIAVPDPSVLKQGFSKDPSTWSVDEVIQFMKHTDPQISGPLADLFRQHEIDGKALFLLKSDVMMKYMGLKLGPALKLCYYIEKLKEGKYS
UniProt P62341, whole entry, looked up: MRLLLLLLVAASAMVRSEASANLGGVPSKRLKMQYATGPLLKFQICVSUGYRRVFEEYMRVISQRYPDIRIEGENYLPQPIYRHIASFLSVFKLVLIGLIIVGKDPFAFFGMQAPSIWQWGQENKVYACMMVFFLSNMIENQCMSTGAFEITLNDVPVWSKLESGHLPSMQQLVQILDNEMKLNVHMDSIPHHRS
UniProt Q8WXD2: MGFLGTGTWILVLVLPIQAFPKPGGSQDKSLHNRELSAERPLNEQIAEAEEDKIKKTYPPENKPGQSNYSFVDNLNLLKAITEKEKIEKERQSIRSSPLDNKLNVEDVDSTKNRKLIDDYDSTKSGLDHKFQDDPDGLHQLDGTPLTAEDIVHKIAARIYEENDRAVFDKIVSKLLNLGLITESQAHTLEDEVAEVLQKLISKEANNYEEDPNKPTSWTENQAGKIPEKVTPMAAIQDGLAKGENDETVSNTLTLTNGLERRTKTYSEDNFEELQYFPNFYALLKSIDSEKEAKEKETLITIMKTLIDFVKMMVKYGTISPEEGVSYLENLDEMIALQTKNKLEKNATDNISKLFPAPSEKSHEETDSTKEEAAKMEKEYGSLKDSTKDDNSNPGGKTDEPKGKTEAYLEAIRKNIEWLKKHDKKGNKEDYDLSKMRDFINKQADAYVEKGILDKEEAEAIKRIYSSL
UniProt Q5VUM1: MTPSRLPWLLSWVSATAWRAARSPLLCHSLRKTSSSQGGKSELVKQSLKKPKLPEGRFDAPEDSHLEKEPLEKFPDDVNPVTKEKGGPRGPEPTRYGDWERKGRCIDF
UniProt Q96LD8: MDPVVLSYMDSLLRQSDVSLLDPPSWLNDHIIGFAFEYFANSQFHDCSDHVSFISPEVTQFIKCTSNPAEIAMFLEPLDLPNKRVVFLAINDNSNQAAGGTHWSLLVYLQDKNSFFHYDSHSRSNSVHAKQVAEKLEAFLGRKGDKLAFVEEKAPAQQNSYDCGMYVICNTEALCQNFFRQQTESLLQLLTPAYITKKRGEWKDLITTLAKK
UniProt Q68CR1: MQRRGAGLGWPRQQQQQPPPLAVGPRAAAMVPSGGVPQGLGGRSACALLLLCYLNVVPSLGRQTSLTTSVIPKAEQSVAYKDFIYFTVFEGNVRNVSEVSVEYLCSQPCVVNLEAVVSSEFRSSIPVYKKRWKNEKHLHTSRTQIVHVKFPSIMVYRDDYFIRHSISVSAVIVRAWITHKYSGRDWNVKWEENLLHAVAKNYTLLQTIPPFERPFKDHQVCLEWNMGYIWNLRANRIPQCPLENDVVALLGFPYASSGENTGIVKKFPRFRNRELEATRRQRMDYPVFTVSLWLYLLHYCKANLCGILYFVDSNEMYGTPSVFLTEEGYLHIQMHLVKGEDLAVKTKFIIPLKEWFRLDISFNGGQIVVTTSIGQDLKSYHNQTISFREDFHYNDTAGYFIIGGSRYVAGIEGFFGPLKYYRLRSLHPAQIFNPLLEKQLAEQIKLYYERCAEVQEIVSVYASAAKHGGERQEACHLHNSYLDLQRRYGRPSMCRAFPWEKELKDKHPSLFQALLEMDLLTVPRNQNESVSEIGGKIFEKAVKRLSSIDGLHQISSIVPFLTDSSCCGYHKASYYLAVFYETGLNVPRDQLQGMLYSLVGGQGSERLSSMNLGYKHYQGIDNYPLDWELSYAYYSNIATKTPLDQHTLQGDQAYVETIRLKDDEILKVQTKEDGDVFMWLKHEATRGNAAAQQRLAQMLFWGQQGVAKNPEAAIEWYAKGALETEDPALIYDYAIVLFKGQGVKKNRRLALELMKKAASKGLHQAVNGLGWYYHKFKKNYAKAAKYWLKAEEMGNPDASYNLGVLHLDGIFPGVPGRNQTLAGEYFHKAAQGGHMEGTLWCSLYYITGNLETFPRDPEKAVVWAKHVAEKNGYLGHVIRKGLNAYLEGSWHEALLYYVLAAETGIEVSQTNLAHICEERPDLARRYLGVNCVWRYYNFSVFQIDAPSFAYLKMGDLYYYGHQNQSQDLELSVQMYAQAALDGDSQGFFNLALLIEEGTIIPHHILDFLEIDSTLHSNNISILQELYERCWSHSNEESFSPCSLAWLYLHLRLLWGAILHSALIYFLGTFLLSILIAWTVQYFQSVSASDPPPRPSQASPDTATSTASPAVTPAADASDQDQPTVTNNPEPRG
UniProt O95969: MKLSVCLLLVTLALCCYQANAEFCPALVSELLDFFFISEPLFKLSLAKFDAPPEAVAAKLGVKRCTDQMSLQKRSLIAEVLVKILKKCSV
UniProt Q14108: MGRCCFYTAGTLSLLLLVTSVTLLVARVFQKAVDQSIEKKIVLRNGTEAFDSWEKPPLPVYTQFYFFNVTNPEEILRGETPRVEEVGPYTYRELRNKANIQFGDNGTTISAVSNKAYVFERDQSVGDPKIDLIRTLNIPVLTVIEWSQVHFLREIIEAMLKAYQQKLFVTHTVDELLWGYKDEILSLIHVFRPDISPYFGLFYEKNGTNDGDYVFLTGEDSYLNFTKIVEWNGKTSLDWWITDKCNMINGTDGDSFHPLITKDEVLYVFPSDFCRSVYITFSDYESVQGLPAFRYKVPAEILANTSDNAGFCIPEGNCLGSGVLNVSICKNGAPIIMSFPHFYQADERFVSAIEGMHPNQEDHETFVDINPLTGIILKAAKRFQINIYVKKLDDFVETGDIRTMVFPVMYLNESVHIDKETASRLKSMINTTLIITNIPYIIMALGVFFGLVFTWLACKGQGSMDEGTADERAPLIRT

Some of the results follow.

Compound in one experiment: CN1CCN(CCOc2cc(OC3CCOCC3)c3c(Nc4c(Cl)ccc5c4OCO5)ncnc3c2)CC1 [saracatinib]
Kind of experiment: log2 fold change, soluble protein after heating vs DMSO (PISA); higher = thermal stabilisation; K562 lysate, 10 uM; active = over 0.2 and 3.5 SD of the protein, either way, in both replicates (recomputed). In a few lines:
(§1)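 K562 pellets were dounce-homogenised in PBS pH 7.4 with 1 mM MgCl2, and the crude extract at 1 mg/mL protein was treated with 10 μM compound for 30 min. Aliquots were heated for 3 min across 48°C-58°C, pooled, and brought to 0.5% NP-40 at 4°C; soluble protein was the supernatant after 21,000xg for 90 min. Soluble protein was quantified by TMTpro 16plex LC-MS/MS with channel sums equalised, and reported as log2 fold change in thermal stability against DMSO controls, with values from duplicates.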
As for SATB2 (UniProt Q9UPW6), the log2 fold change is inactive: -0.026. Still for that read-out and setting: for SEMA4G isoform 2 (UniProt Q9NTN9) the value was inactive: -0.227; for SEC62 (UniProt Q99442), inactive: -0.011. For the target SAP30 (UniProt O75446), the log2 fold change was inactive: 0.016. Still for that read-out and setting: for SENP5 (UniProt Q96HI0) the value was inactive: -0.088.

For the target SDHD (UniProt O14521), the log2 fold change was inactive: 0.058. On to SEC11C (UniProt Q9BY50), for which the log2 fold change is inactive: -0.04. With SCYL3 isoform 2 (UniProt Q8IZE3), the log2 fold change was inactive: 0.031.

For SEC24B isoform 3 (UniProt O95487), the log2 fold change is inactive: 0.037. On to SCML2 (UniProt Q9UQR0), for which the log2 fold change is inactive: 0.064. Still for that read-out and setting: for SELENOT (UniProt P62341) the value was inactive: -0.067; for SAP130 isoform 3 (UniProt Q9H0E3), inactive: 0.042. Take SELENOK (UniProt Q9Y6D0): the log2 fold change is inactive: -0.021.

Take SCG3 (UniProt Q8WXD2): the log2 fold change was inactive: 0. Still for that read-out and setting: for SASH1 (UniProt O94885) the value was inactive: 0.077; for SDHAF4 (UniProt Q5VUM1), inactive: 0.022. Still for that read-out and setting: for SENP8 (UniProt Q96LD8) the value was inactive: 0.056; for SDHB, A0A087WWT1, inactive: -0.059; for SDHAF2 (UniProt Q9NX18), inactive: 0.016. On the same count and under the same terms, in the case of SEL1L3 (UniProt Q68CR1) it was inactive: 0.043; in that of SALL2 (UniProt Q9Y467), inactive: -0.1; in that of SCGB1D2 (UniProt O95969), inactive: 0.251. With SENP3 (UniProt Q9H4L4), the log2 fold change is inactive: 0.029. Still for that read-out and setting: for SCARB2 (UniProt Q14108) the value was inactive: 0.017. Same read-out and setting: in the case of SEC61A1 (UniProt P61619) it was inactive: -0.008; in that of SAE1 (UniProt M0R286), inactive: -0.039. As to SCAF1 (UniProt Q9H7N4), the log2 fold change was inactive: 0.009. In the case of SAFB isoform 3 (UniProt Q15424), the log2 fold change was inactive: -0.025.

Compound in a further experiment: CN1CCN(c2nc(C3=C(c4c[nH]c5ccccc45)C(=O)NC3=O)c3ccccc3n2)CC1 [sotrastaurin]
The description is as above. In a few lines:
as §1
With SATB2 (UniProt Q9UPW6), the log2 fold change is inactive: 0.032.

SEMA4G isoform 2 (UniProt Q9NTN9): the log2 fold change is inactive: 0.004. Same read-out and setting: in the case of SEC62 (UniProt Q99442) it was inactive: -0.04; in that of SAP30 (UniProt O75446), inactive: -0.013. As to SENP5 (UniProt Q96HI0), the log2 fold change is inactive: -0.008. The same measure, in the same setting: in the case of SDHD (UniProt O14521) it was inactive: 0.058. In the case of SEC11C (UniProt Q9BY50), the log2 fold change is inactive: 0.025. Same read-out and setting: for SCYL3 isoform 2 (UniProt Q8IZE3) the value was inactive: 0.034.

With SEC24B isoform 3 (UniProt O95487), the log2 fold change is inactive: 0.037. On the same count and under the same terms, in the case of SCML2 (UniProt Q9UQR0) it was inactive: -0.067; in that of SELENOT (UniProt P62341), inactive: 0.022; in that of SAP130 isoform 3 (UniProt Q9H0E3), inactive: -0.007.

For the target SCG3 (UniProt Q8WXD2), the log2 fold change was inactive: 0.134.

Turning to SASH1 (UniProt O94885), the log2 fold change is inactive: 0.07. SDHAF4 (UniProt Q5VUM1): the log2 fold change is inactive: 0.051. On to SENP8 (UniProt Q96LD8), for which the log2 fold change was inactive: 0.071. Same read-out and setting: in the case of SDHB, A0A087WWT1 it was inactive: -0.342; in that of SDHAF2 (UniProt Q9NX18), inactive: 0.033.

Turning to SEL1L3 (UniProt Q68CR1), the log2 fold change was inactive: -0.026. For the target SALL2 (UniProt Q9Y467), the log2 fold change was inactive: -0.066. Still for that read-out and setting: in the case of SCGB1D2 (UniProt O95969) it was inactive: -0.015.

Regarding SENP3 (UniProt Q9H4L4), the log2 fold change is inactive: 0.052. For SCARB2 (UniProt Q14108), the log2 fold change is inactive: -0.004.

For the target SEC61A1 (UniProt P61619), the log2 fold change is inactive: -0.053. For the target SCAF1 (UniProt Q9H7N4), the log2 fold change was inactive: -0.029. As to SAFB isoform 3 (UniProt Q15424), the log2 fold change is inactive: 0.02.
